Assay results reported in patent US20260248828A1, “Pyropheophorbide Analogues for Therapy and Diagnosis” (RMW Cho Group Limited, priority 2023, published 2026).

Each compound was assayed on SKOV3 ovarian cancer cells (assay: Phototoxicity in SKOV3 cells after 660 nm light activation (AlamarBlue viability)). Conditions: calculated using phototoxicity IC90 vs dark toxicity IC10, SKOV3 cells.
Assay type: cell-based, Human
Protocol: Samples were stored at 4° C. protected from light.
All data are shown as mean±SD (where appropriate).
To test for phototoxicity, cells incubated with pyropheophorbide a analogues (0-20 μM in DMSO) had culture media replaced after 24 hours (as above) and were then exposed to a 660 nm laser (Invion) or light-emitting diode (LED) panel (Invion) with optical power density at 50 mW/cm^2 for 5 mins (total 15 J/cm^2). Laser and LED exposure induce an equivalent response in relation to phototoxicity. Following activation, cells were cultured for a further 24 hours. Media was then replaced with fresh media containing AlamarBlue, and % viable cells remaining assessed as above. Controls included cells treated with pyropheophorbide a analogues but not activated by laser light; cells without pyropheophorbide a analogue treatment but with laser light; and untreated controls. All measurements were made in quadruplicate.
To evaluate the therapeutic potential of pyropheophorbide a analogues, the therapeutic index (TI) was calculated. TI provides a quantitative measurement to describe relative drug safety, by comparing the drug concentration required for desirable effects versus the concentration resulting in undesirable off-target toxicity. TI was calculated using phototoxicity IC90 vs dark toxicity IC10.

| SMILES | Therapeutic Index |
| --- | --- |
| CCOC(=O)N(CCC[P+](c1ccccc1)(c1ccccc1)c1ccccc1)Cc1c(C)c2cc3nc(c4c5[nH]c(cc6nc(cc1[nH]2)C(C)=C6CC)c(C)c5C(=O)C4)[C@@H](CCC(=O)OC)[C@@H]3C [Compound 5, pyropheophorbide a 9-(N-3-triphenylphosphoniumpropyl bromide ethylcarbamate)aminomethyl methyl ester] | 8161.67 |
| C=Cc1c(C)c2cc3nc(c(C)c4[nH]c(cc5nc(cc1[nH]2)C(C)=C5CC)c(C)c4C(=O)O)[C@@H](CCC(=O)O)[C@@H]3C [Chlorin e4 disodium, chlorin e4 disodium, reference compound] | 1.89 |
| CCC1=C(C)c2cc3[nH]c(cc4nc(c5c6[nH]c(cc1n2)c(C)c6C(=O)C5)[C@@H](CCC(=O)OC)[C@@H]4C)c(C)c3CO [Comparative Compound 1, pyropheophorbide a 9-hydroxymethyl methyl ester, reference compound] | 33.84 |
| CCC1=C(C)c2cc3[nH]c(cc4nc(c5c6[nH]c(cc1n2)c(C)c6C(=O)C5)[C@@H](CCC(=O)OC)[C@@H]4C)c(C)c3CN(C)C(=O)CCCC[P+](c1ccccc1)(c1ccccc1)c1ccccc1 [Compound 3, pyropheophorbide a 9-N-(methyl-5-triphenylphosphonium bromidepentanamide) methyl ester] | 2000.00 |
| C=Cc1c(C)c2cc3nc(c(CC(=O)N[C@@H](CC(=O)O)C(=O)O)c4[nH]c(cc5nc(cc1[nH]2)C(C)=C5CC)c(C)c4C(=O)O)[C@@H](CCC(=O)O)[C@@H]3C [Talaporfin sodium, reference compound] | 0.49 |
| CCC1=C(C)c2cc3[nH]c(cc4nc(c5c6[nH]c(cc1n2)c(C)c6C(=O)C5)[C@@H](CCC(=O)OC)[C@@H]4C)c(C)c3COC(=O)CCCC[P+](c1ccccc1)(c1ccccc1)c1ccccc1 [Compound 2, pyropheophorbide a methyl ester 9-(oxopentyl)triphenylphosphonium bromide] | 207.50 |
| CCC1=C(C)c2cc3[nH]c(cc4nc(c5c6[nH]c(cc1n2)c(C)c6C(=O)C5)[C@@H](CCC(=O)OC)[C@@H]4C)c(C)c3CNCCC[P+](c1ccccc1)(c1ccccc1)c1ccccc1 [Compound 4, pyropheophorbide a 9-(N-3-triphenylphosphoniumpropyl bromide)aminomethyl methyl ester] | 1060.42 |
| CCC1=C(C)c2cc3[nH]c(cc4nc(c5c6[nH]c(cc1n2)c(C)c6C(=O)C5)[C@@H](CCC(=O)OC)[C@@H]4C)c(C)c3COC(=O)NCCC[P+](c1ccccc1)(c1ccccc1)c1ccccc1 [Compound 1, pyropheophorbide a methyl ester 9-(N-(3-triphenylphosphoniumpropyl)bromide)carbamate] | 81.26 |
